Experiment: Photo-decoloring ability (ultraviolet exposure through UGRA plate control wedge PCW 82)
Conditions: step at which sample photo-decolored; UV exposure adjusted so that sample 4-1 decolors at the eighth step; higher is better
From the text: The binder resin composition containing the photo-decoloring dye used for making sample 3-1 was coated on a polyethylenenaphthalate base having thickness of 4.0 μm by using a wire bar in a coating amount of 2.5 g/m^2 after drying so as to obtain a photo-recording material consisting of a photo-decoloring layer on the polyethylenenaphthalate film. On a back side of said polyethylenenaphthalate base was coated a nitrocellulose layer containing a silicone modified urethane resin (SP-2105, produced by Dainichiseika Co., Ltd.) as a sticking-preventing layer. Thus obtained sample is termed sample 4-1.
By replacing the photo-decoloring dye 7 used in sample 4-1 by such photo-decoloring dyes as described later, sample 4-2 to 4-16 were obtained. Both photo-decoloring ability and storage stability of these dyes were evaluated.
The above obtained photo-recording materials were exposed to ultraviolet rays by using UGRA plate control wedge PCW 82 (produced by Mika Electron Co., Ltd.). An exposed amount of ultraviolet rays was adjusted so that sample 4-1 photo-decolored at the eighth step. The same amount of ultraviolet rays was given to the other samples 4-2 to 4-16 and evaluation was carried out by counting the step where the samples photo-decolored. With higher step where the samples photo-decolor, the photo-recording materials are excellent in photo-decoloring ability.

With CCCCCCCCCCCCC(Oc1ccc(OC(C)=O)c(C(C)(C)C)c1)C(=O)NCCc1nnc2n1N=C(C)C2=Nc1cc(Cl)c(O)c(Cl)c1 (centres unmarked) [compound 17] as the molecule, how does the Photo-decoloring ability read?
Its Photo-decoloring ability is 8.

With CCCCc1nnc2c(=Cc3cc(Cl)c(O)c(Cl)c3)c(C(C)(C)C)nn12 [B] as the molecule, how does the Photo-decoloring ability read?
Its Photo-decoloring ability is 7.

With CCCCCCCCCCCCS(=O)(=O)CCCc1nnc2c(=Cc3cc(Cl)c(O)c(Cl)c3)c(C(C)(C)C)nn12 [compound 58] as the molecule, how does the Photo-decoloring ability read?
Its Photo-decoloring ability is 9.

With CCCCCCCCCCCCS(=O)(=O)CCCc1nnc2n1N=C(C(C)(C)C)C2=Nc1cc(Cl)c(O)c(Cl)c1 [compound 7] as the molecule, how does the Photo-decoloring ability read?
The Photo-decoloring ability was 8.

With CCC(C)(C)c1ccc(OCC(=O)Nc2ccnc(-c3cnc4n3N=C(C(C)(C)C)C4=Nc3cc(Cl)c(O)c(Cl)c3)c2)c(C(C)(C)CC)c1 [compound 33] as the molecule, how does the Photo-decoloring ability read?
The Photo-decoloring ability was 8.

Which Photo-decoloring ability does the source give for CCN(CC)c1ccc(N=C2C=CC(=O)c3ccccc32)cc1 [E] here?
The Photo-decoloring ability was 1.

With CCN(CC)c1ccc(N=C2C(=O)N(c3ccccc3)N=C2C)cc1 [D] as the molecule, how does the Photo-decoloring ability read?
The Photo-decoloring ability was 1.

Which Photo-decoloring ability does the source give for CCC(Oc1ccc(C(C)(C)CC)cc1C(C)(C)CC)C(=O)NCCC(C)c1nnc2n1N=C(C(C)(C)C)C2=Nc1cc(Cl)c(O)c(Cl)c1 (centres unmarked) [compound 11] here?
The Photo-decoloring ability was 7.

Which Photo-decoloring ability does the source give for CCCCc1nnc2n1N=C(C(C)(C)C)C2=Nc1ccc(O)cc1 [A] here?
Its Photo-decoloring ability is 9.

Which Photo-decoloring ability does the source give for CN1C(=CC=CC2=[N+](C)c3ccccc3C2(C)C)C(C)(C)c2ccccc21 [F] here?
The Photo-decoloring ability was 5.

With CCCCCCCCCCCCS(=O)(=O)NCCc1nc2c(=Cc3cc(Cl)c(O)c(Cl)c3)c(C(C)(C)C)nn2n1 [compound 47] as the molecule, how does the Photo-decoloring ability read?
The Photo-decoloring ability was 9.

For CCN(CC)c1ccc(N=C(C(C)=O)C(=O)Nc2ccccc2)c(C)c1 [C], which Photo-decoloring ability is on record?
The Photo-decoloring ability was 3.

With CCCCC(Oc1ccc(C(C)(C)CC)cc1C(C)(C)CC)C(=O)Nc1ccc2nc3n(c2c1)N=C(C)C3=Nc1cc(Cl)c(O)c(Cl)c1 (centres unmarked) [compound 32] as the molecule, how does the Photo-decoloring ability read?
Its Photo-decoloring ability is 6.

With CCCCCCCCCCCCOc1ccc(S(=O)(=O)NCC(C)(C)c2nnc3n2N=C(C(C)(C)C)C3=Nc2cc(Cl)c(O)c(Cl)c2)cc1 [compound 13] as the molecule, how does the Photo-decoloring ability read?
Its Photo-decoloring ability is 7.

Source: patent publication US6124078A, “Photo-decoloring dye, a binder resin composition containing the same and photo-recording material” (Konica Corporation, priority 1998, dated 2000)
